# Measurements: article PMC5460159
# Chains of the proteins cited; added tags and fusions are not shown.
# UniProt O75376: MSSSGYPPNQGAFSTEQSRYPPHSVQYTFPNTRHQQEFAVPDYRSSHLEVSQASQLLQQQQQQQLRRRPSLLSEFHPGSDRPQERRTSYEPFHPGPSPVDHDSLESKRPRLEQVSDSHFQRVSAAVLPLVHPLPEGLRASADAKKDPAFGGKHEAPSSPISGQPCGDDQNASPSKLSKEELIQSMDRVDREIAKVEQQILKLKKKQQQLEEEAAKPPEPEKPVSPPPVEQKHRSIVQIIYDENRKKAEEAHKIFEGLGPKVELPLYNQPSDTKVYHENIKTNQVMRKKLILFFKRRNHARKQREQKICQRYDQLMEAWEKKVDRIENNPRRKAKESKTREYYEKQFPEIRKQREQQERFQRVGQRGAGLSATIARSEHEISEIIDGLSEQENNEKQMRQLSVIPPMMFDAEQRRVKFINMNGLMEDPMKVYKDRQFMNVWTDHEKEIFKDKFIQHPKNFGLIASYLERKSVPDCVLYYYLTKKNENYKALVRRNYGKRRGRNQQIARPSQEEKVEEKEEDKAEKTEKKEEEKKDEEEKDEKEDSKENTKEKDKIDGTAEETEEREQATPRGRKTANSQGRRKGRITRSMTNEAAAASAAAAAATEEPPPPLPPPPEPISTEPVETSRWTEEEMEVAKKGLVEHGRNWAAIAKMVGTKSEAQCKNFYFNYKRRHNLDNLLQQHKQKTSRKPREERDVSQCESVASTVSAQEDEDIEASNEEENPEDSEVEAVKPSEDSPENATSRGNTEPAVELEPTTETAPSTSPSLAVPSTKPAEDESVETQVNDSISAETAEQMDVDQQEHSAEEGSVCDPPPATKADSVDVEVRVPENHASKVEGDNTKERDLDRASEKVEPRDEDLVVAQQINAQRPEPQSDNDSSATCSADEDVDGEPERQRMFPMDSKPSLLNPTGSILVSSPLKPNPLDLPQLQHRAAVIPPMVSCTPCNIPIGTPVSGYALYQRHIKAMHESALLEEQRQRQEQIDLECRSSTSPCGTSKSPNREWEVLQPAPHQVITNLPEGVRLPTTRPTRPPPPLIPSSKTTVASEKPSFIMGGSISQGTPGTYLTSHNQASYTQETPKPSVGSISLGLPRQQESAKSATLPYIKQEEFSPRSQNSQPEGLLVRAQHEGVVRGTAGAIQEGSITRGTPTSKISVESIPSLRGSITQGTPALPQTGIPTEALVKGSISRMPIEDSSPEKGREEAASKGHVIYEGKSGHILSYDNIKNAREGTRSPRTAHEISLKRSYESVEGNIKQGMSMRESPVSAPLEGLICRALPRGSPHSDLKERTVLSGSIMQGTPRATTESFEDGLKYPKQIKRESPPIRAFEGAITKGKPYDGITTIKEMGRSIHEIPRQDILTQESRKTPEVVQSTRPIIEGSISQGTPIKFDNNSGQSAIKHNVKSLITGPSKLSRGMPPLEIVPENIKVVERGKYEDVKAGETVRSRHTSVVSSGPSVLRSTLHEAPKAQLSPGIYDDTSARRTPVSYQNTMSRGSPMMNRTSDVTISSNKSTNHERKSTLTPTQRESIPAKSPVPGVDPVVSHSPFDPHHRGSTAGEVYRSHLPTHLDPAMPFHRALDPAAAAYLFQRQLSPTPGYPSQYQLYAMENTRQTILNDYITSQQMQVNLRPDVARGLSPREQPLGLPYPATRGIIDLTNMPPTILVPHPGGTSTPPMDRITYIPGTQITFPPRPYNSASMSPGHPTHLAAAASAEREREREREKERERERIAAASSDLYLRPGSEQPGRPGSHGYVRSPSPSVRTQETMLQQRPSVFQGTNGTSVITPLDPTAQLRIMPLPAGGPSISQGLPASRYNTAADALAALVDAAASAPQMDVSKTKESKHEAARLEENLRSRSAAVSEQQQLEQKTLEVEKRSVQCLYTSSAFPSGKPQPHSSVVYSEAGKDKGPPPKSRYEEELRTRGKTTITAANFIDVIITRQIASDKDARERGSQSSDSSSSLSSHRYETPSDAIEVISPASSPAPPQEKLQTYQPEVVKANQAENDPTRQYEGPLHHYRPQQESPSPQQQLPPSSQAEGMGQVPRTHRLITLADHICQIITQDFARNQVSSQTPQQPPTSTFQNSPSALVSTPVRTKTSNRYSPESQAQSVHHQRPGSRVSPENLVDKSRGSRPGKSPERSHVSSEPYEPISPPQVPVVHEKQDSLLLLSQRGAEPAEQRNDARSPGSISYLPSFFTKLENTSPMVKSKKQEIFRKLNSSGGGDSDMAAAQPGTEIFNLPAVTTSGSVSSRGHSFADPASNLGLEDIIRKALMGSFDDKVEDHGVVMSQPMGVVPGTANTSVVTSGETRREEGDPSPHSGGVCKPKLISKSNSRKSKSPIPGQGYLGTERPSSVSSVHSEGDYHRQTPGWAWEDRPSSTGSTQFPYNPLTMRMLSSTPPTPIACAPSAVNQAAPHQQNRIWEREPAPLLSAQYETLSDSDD
# UniProt Q60974: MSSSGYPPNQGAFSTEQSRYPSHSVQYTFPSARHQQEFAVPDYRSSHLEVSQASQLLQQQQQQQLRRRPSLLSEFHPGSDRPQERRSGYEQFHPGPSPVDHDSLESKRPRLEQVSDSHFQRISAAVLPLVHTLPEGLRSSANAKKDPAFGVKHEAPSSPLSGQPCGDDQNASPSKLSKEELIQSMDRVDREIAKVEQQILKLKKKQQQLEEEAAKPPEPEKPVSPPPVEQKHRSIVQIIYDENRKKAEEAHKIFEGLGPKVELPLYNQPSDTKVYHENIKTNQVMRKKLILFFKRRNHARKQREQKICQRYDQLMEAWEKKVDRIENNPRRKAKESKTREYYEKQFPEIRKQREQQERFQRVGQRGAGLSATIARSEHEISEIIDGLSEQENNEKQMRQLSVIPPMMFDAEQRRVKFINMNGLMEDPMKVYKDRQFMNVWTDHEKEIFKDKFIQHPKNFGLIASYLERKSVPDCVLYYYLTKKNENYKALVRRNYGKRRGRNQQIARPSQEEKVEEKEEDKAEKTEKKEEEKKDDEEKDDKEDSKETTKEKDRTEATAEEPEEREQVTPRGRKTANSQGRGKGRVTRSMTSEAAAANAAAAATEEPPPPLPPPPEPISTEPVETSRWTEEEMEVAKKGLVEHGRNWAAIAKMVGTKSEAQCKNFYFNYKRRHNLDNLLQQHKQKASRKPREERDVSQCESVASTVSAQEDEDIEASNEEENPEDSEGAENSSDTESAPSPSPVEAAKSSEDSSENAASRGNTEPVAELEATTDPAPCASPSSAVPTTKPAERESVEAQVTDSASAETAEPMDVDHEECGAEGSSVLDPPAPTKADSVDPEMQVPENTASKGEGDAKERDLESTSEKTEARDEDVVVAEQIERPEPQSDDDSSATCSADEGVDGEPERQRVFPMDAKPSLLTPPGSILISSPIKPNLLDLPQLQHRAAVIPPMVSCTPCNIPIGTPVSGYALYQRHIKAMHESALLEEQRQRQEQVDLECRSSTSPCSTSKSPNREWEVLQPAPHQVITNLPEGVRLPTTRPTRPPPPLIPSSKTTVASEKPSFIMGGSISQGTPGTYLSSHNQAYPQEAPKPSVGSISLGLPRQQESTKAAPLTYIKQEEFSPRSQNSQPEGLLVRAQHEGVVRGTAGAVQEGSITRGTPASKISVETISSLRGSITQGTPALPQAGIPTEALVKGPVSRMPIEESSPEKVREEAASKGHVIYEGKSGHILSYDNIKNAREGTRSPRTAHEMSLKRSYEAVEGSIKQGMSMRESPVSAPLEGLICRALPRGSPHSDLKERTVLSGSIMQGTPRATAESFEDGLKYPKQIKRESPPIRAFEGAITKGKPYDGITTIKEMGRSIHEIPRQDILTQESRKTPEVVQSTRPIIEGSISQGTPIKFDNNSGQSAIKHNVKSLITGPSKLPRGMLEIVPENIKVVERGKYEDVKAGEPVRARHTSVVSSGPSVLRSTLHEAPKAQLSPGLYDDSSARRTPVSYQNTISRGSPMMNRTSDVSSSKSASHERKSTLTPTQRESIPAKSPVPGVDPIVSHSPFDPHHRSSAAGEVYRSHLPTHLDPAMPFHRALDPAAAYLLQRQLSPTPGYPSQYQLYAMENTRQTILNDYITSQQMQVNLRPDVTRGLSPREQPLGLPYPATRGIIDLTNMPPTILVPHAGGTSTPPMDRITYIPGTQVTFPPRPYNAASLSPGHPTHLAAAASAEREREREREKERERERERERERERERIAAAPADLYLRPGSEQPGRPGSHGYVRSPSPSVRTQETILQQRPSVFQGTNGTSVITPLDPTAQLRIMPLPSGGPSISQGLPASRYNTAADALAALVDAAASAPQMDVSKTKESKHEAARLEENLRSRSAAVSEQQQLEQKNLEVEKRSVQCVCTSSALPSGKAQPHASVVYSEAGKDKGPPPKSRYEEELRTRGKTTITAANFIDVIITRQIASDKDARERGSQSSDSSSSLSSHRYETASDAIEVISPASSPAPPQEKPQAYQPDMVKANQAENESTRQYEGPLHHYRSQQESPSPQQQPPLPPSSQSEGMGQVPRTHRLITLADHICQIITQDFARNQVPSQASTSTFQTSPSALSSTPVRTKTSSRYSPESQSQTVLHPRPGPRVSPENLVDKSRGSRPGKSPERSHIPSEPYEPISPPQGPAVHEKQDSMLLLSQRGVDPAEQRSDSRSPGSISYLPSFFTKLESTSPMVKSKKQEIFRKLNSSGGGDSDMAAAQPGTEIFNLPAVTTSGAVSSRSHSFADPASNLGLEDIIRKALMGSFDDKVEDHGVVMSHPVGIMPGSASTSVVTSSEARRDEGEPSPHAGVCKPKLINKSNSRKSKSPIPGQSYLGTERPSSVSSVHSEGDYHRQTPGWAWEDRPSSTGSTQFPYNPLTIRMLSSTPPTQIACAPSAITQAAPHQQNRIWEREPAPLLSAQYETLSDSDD
# UniProt P35222: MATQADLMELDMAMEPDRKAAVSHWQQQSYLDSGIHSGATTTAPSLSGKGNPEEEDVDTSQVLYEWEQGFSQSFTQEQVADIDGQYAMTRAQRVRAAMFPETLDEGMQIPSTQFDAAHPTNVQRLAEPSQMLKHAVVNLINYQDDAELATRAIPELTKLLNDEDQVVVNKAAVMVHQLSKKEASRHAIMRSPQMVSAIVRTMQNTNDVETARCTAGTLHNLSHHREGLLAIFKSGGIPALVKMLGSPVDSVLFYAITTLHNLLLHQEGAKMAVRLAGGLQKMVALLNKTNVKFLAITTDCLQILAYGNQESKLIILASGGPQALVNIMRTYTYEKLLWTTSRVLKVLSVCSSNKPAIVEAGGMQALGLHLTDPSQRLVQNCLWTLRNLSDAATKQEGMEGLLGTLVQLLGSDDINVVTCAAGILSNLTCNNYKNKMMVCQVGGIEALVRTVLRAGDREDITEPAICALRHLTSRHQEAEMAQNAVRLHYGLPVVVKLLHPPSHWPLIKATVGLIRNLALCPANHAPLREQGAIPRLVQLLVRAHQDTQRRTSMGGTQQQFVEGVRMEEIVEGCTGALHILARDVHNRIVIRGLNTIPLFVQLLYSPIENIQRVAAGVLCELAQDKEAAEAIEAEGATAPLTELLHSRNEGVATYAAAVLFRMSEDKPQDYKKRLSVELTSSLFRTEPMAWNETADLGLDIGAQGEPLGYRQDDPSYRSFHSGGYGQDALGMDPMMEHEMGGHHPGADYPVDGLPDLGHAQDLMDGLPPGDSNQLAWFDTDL
# UniProt Q02248: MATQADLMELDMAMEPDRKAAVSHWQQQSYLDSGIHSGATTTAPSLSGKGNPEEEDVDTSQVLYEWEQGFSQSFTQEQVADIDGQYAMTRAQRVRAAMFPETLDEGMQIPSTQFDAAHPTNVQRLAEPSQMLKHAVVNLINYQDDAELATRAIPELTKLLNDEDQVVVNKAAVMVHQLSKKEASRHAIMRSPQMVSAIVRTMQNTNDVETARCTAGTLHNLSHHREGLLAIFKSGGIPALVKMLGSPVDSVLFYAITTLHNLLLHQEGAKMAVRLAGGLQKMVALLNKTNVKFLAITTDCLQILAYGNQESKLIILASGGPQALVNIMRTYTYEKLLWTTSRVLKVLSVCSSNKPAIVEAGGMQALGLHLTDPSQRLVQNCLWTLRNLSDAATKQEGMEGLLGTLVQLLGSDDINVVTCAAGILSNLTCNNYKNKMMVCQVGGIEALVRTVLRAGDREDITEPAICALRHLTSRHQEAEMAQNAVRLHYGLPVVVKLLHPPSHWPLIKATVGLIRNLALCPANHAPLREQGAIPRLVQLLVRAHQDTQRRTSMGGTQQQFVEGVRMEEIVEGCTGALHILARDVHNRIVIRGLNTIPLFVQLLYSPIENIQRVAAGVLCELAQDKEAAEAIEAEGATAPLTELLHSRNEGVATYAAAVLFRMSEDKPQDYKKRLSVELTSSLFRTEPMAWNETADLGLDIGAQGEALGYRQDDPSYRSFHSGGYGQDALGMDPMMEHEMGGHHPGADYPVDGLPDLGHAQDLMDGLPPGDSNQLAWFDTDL
# Numbering of substitutions follows the chain as printed. No constants are given. Whether binding was seen depends on the method and setting. In cells and extracts the contact can be indirect. Some binding calls cover weakened binding; strength is not graded here. Sequences can lack the tags named with a protein.
# What was measured:
# [1] = molecular target: T1, FLAG-tagged transducin (beta)-like 1 X-linked receptor 1 (TBL1XR1), wild type, expressed in 293FT cells (UniProt Q9BZK7); test: co-IP; lysate of transfected 293FT cells in 50 mM Tris-HCl pH 7.4, 150 mM sodium chloride, 1% NP-40, 0.3% sodium deoxycholate, 0.1% SDS, protease inhibitors; primary antibodies and protein G Plus/Protein A agarose; Western blot, densitometry
# T1 sequence: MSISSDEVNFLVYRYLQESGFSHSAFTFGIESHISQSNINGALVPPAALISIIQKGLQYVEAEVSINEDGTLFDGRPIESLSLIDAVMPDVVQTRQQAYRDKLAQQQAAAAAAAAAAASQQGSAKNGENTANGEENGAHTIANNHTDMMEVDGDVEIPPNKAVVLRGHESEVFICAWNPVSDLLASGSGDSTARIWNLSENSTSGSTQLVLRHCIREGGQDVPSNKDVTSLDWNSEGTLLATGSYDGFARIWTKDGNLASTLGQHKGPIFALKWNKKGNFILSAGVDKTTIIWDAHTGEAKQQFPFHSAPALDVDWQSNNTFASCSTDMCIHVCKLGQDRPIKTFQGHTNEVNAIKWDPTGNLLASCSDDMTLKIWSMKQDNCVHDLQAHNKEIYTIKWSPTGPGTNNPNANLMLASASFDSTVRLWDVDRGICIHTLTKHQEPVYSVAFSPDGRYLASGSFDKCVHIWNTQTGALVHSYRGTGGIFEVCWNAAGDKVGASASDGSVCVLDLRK
# [2] = molecular target: T2, FLAG-tagged mutant TBL1XR1 (TBL1XR1^Phe10Leu), expressed in 293FT cells (UniProt Q9BZK7); test: as above
# T2 sequence: T1 sequence with F10L
# [3] = molecular target: T3, FLAG-tagged transducin (beta)-like 1 X-linked receptor 1 (TBL1XR1), wild type, expressed in HT22 cells (UniProt Q9BZK7); test: co-IP; lysate of transfected HT22 cells in 50 mM Tris-HCl pH 7.4, 150 mM sodium chloride, 0.1% NP-40, protease inhibitors; primary antibodies and protein G Plus/Protein A agarose; Western blot, densitometry
# T3 sequence: T1 sequence
# [4] = molecular target: T4, FLAG-tagged mutant TBL1XR1 (TBL1XR1^Phe10Leu), expressed in HT22 cells (UniProt Q9BZK7); test: as above
# T4 sequence: T1 sequence with F10L
binding [1],binding [2],binding [3],binding [4],Substance
binds,binds,–,–,"nuclear receptor corepressor (N-CoR), endogenous in 293FT cells (from UniProt O75376 1-2440)"
–,–,binds,binds,"nuclear receptor corepressor (N-CoR), endogenous in HT22 cells (from UniProt Q60974 1-2453)"
binds,binds,–,–,"β-catenin, endogenous in 293FT cells (from UniProt P35222 1-781)"
–,–,binds,binds,"β-catenin, endogenous in HT22 cells (from UniProt Q02248 1-781)"
